Source: the supplement of paper PMC10689618
Some of the results follow. Single values are uncertain, as repeats are few or missing.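 Primary human fetal astrocytes engulfed labelled rat cortical synaptosomes, measured as a red/green ratio corrected for calcein live-cell signal and scaled to the plate median. Toxicity meant calcein falling over 30%; decreased phagocytosis meant below 70% of median above 5 µM.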

What was measured:
[1] = system: Human fetal astrocytes; experiment: loss of total cells relative to no-compound high-control median (toxicity); higher = more toxic (fewer cells); conditions: 24 h
[2] = system: Human fetal astrocytes; experiment: synaptosome phagocytosis (pHrodo/calcein intensity ratio) relative to plate median of data wells; higher = more phagocytosis; conditions: 24 h

| Structure (SMILES) | loss of total cells ([1]; 1.39 µM) | loss of total cells ([1]; 2.78 µM) | loss of total cells ([1]; 5.56 µM) | loss of total cells ([1]; 11.11 µM) | loss of total cells ([1]; 22.22 µM) | synaptosome phagocytosis ([2]; 1.39 µM) | synaptosome phagocytosis ([2]; 2.78 µM) | synaptosome phagocytosis ([2]; 5.56 µM) | synaptosome phagocytosis ([2]; 11.11 µM) | synaptosome phagocytosis ([2]; 22.22 µM) |
| --- | --- | --- | --- | --- | --- | --- | --- | --- | --- | --- |
| OC[C@@H](O)[C@@H](O[C@@H]1O[C@H](CO)[C@@H](O)[C@H](O)[C@H]1O)[C@H](O)[C@@H](O)CO | -28.7% | -12.6% | -7.3% | -10.8% | -14.1% | 82.1% | 102% | 117% | 82.7% | 109% |
| CC[C@H]1OC(=O)[C@H](C)[C@@H](O[C@H]2C[C@@](C)(OC)[C@@H](O)[C@H](C)O2)[C@H](C)[C@@H](O[C@@H]2O[C@H](C)C[C@H](N(C)C)[C@H]2O)[C@](C)(O)C[C@@H](C)CN(C)[C@H](C)[C@@H](O)[C@]1(C)O | -33.9% | -40.5% | 6.2% | 3% | 6.5% | 83.1% | 91.8% | 78.1% | 90.5% | 130% |
| CO[C@H]1C[C@@H]2CC[C@@H](C)[C@@](O)(O2)C(=O)C(=O)N2CCCC[C@H]2C(=O)O[C@H]([C@H](C)C[C@@H]2CC[C@@H](O)[C@H](OC)C2)CC(=O)[C@H](C)/C=C(\C)[C@@H](O)[C@@H](OC)C(=O)[C@H](C)C[C@H](C)/C=C/C=C/C=C/1C | -8.9% | 30.2% | 8.1% | 49.5% | 4.7% | 60.6% | 147% | 86.7% | 145% | 112% |
| CC(C)=CCOc1cc2oc(=O)ccc2cc1O | -24.3% | 0.7% | 38.2% | -2.6% | 29.3% | 77.9% | 98% | 133% | 71.9% | 107% |
| CC(C)c1c(O)c(-c2cc3c(c(C(C)C)c2O)CCC2C(C)(C)CCC[C@]32C)cc2c1CCC1C(C)(C)CCC[C@]21C (stereo not given in full) | -17.8% | -2.7% | 32.1% | 12.3% | -3.3% | 95.6% | 109% | 145% | 72.5% | 113% |
| O=C(O)CCCC[C@@H]1CCSS1 | 4% | 13.4% | -10.1% | -2.1% | 16.7% | 114% | 110% | 71.4% | 132% | 170% |
| Cc1cc2nc3c(=O)[nH]c(=O)nc-3n(CC(O)C(O)C(O)COP(=O)(O)O)c2cc1C (stereo not given) | -22.8% | 2.7% | 39.7% | 7.7% | 24.8% | 87.8% | 82.5% | 111% | 92.9% | 129% |
| COc1cc(-c2coc3cc(OC)c(OC)c(OC)c3c2=O)cc(OC)c1OC | 29.3% | 10.6% | -19.1% | 44.5% | 6.3% | 136% | 120% | 101% | 161% | 112% |
| CC(C)NCC(O)COc1cccc2[nH]ccc12 (stereo not given) [Pindolol] | 5.6% | -13.9% | -20.9% | -1.4% | 40.4% | 76.1% | 74.3% | 94.6% | 106% | 104% |
| COC1=CC(=O)C[C@@H](C)[C@]12Oc1c(Cl)c(OC)cc(OC)c1C2=O | -2.5% | 8.2% | 11.1% | 12.5% | 17.6% | 98.6% | 113% | 116% | 94.6% | 127% |
| Nc1ncnc2c1ncn2[C@@H]1O[C@H](CO)[C@@H](O)[C@@H]1O | -2.1% | -21.4% | -28.6% | -11.2% | -7% | 90.3% | 132% | 114% | 109% | 87.1% |
| Nc1nc(/C(=C/CC(=O)O)C(=O)N[C@@H]2C(=O)N3C(C(=O)O)=CCS[C@H]23)cs1 | -41.1% | -25.4% | 1.9% | 44.3% | 1.6% | 99.2% | 113% | 105% | 131% | 124% |
| c1ccc2c(Cc3c[nH]c4ccccc34)c[nH]c2c1 | -13.1% | -1.8% | -2.9% | 4.1% | 11.9% | 117% | 107% | 120% | 106% | 93.4% |
| CCC[C@@H]1C[C@@H](C(=O)N[C@@H]([C@H]2O[C@H](SC)[C@H](O)[C@@H](O)[C@H]2O)[C@H](C)Cl)N(C)C1 | 7.4% | -29.5% | -10.5% | -22.2% | -5.2% | 80.2% | 75.2% | 125% | 102% | 120% |
| Cc1c(C(N)=O)cc([N+](=O)[O-])cc1[N+](=O)[O-] | 20.6% | 24.2% | 21% | -9.6% | 6.1% | 93.6% | 136% | 99.8% | 92.2% | 154% |
| O=C(O)c1cc(=O)c(O)c2c(O)c(O)c(O)cc2c1 | 17% | 22.7% | 31.9% | 10.5% | 40.9% | 110% | 135% | 97.4% | 111% | 77.2% |
| C#CCCCCCCCCCCCC(O)CC(O)CO (stereo not given) | 12% | 2.7% | -37.4% | 16.8% | -10.7% | 65.2% | 56.3% | 66.7% | 57.8% | 52.5% |
| CC(C)[C@@H]1CC[C@@H](C)CC1=O | -14.8% | -2.5% | 2.2% | 4.1% | -4.4% | 88.7% | 98.9% | 90.7% | 98.8% | 88.9% |
| CC(=O)O[C@@H]1CC2C(C)(C)C(=O)C3OC3[C@]2(C)C2CC[C@@]3(C)[C@H](c4ccoc4)OC(=O)C4OC43[C@@]21C (stereo not given in full) | -6.9% | 1.3% | -25.2% | -1.9% | -5.6% | 108% | 117% | 100% | 105% | 75.8% |
| Cc1c(N)c(=O)n(-c2ccccc2)n1C | 19.2% | 11.3% | -23.7% | 55.5% | 8.5% | 136% | 128% | 108% | 168% | 116% |

Sorted by SMILES length (rising): part of the list above.

| Structure (SMILES) | loss of total cells ([1]; 1.39 µM) | loss of total cells ([1]; 2.78 µM) | loss of total cells ([1]; 5.56 µM) | loss of total cells ([1]; 11.11 µM) | loss of total cells ([1]; 22.22 µM) | synaptosome phagocytosis ([2]; 1.39 µM) | synaptosome phagocytosis ([2]; 2.78 µM) | synaptosome phagocytosis ([2]; 5.56 µM) | synaptosome phagocytosis ([2]; 11.11 µM) | synaptosome phagocytosis ([2]; 22.22 µM) |
| --- | --- | --- | --- | --- | --- | --- | --- | --- | --- | --- |
| Nc1nc(/C(=C/CC(=O)O)C(=O)N[C@@H]2C(=O)N3C(C(=O)O)=CCS[C@H]23)cs1 | -41.1% | -25.4% | 1.9% | 44.3% | 1.6% | 99.2% | 113% | 105% | 131% | 124% |
| CC[C@H]1OC(=O)[C@H](C)[C@@H](O[C@H]2C[C@@](C)(OC)[C@@H](O)[C@H](C)O2)[C@H](C)[C@@H](O[C@@H]2O[C@H](C)C[C@H](N(C)C)[C@H]2O)[C@](C)(O)C[C@@H](C)CN(C)[C@H](C)[C@@H](O)[C@]1(C)O | -33.9% | -40.5% | 6.2% | 3% | 6.5% | 83.1% | 91.8% | 78.1% | 90.5% | 130% |
| CO[C@H]1C[C@@H]2CC[C@@H](C)[C@@](O)(O2)C(=O)C(=O)N2CCCC[C@H]2C(=O)O[C@H]([C@H](C)C[C@@H]2CC[C@@H](O)[C@H](OC)C2)CC(=O)[C@H](C)/C=C(\C)[C@@H](O)[C@@H](OC)C(=O)[C@H](C)C[C@H](C)/C=C/C=C/C=C/1C | -8.9% | 30.2% | 8.1% | 49.5% | 4.7% | 60.6% | 147% | 86.7% | 145% | 112% |

Next part:

| Structure (SMILES) | loss of total cells ([1]; 1.39 µM) | loss of total cells ([1]; 2.78 µM) | loss of total cells ([1]; 5.56 µM) | loss of total cells ([1]; 11.11 µM) | loss of total cells ([1]; 22.22 µM) | synaptosome phagocytosis ([2]; 1.39 µM) | synaptosome phagocytosis ([2]; 2.78 µM) | synaptosome phagocytosis ([2]; 5.56 µM) | synaptosome phagocytosis ([2]; 11.11 µM) | synaptosome phagocytosis ([2]; 22.22 µM) |
| --- | --- | --- | --- | --- | --- | --- | --- | --- | --- | --- |
| CC(C)CC(NC(=O)[C@H](C)N)C(=O)O (mixture of isomers) | -30.3% | -2.5% | 6.6% | 3.4% | -6.7% | 71.1% | 117% | 89.3% | 82.3% | 77% |
| CCN(CC)C(=O)N1CCN(C)CC1 | -10.4% | -24.7% | -16.7% | 4.3% | -42.2% | 127% | 82.7% | 99.7% | 79.6% | 78.8% |
| Nc1ccn([C@@H]2O[C@H](CO)[C@@H](O)[C@@H]2O)c(=O)n1 | -0.3% | -3.7% | 0% | -2% | 45.3% | 128% | 131% | 133% | 98.8% | 97.8% |
| COc1ccc(-c2cc(=O)c3c(OC)c(OC)c(OC)c(OC)c3o2)cc1 | -23% | 0.4% | 12.5% | 20.3% | 20% | 89.8% | 96% | 97.7% | 107% | 110% |
| COC(=O)[C@H]1[C@H]2C[C@H]3c4[nH]c5cc(OC)ccc5c4CCN3C[C@H]2C[C@@H](OC(=O)c2cc(OC)c(OC)c(OC)c2)[C@@H]1OC | 6.9% | 17% | 15.2% | -2.9% | 11.4% | 145% | 98.1% | 118% | 76.2% | 80.4% |
| CO[C@@]1(NC(=O)C(C(=O)O)c2ccc(O)cc2)C(=O)N2C(C(=O)O)=C(CSc3nnnn3C)CO[C@@H]21 (stereo not given in full) | -19.1% | -16.8% | 15.3% | -10.9% | 4.5% | 110% | 105% | 114% | 116% | 120% |
| CC1(C)S[C@@H]2[C@H](NC(=O)[C@H](C(=O)O)c3ccsc3)C(=O)N2[C@H]1C(=O)O | -33.1% | -20.6% | -12.4% | 23.9% | -3.4% | 114% | 94.4% | 86.2% | 128% | 99.8% |
| O=c1cc(-c2ccc(O)cc2)oc2cc(O)ccc12 | -16.4% | -9.7% | -7.3% | 1.4% | 0% | 99.6% | 106% | 91% | 111% | 89.3% |
| COc1ccc2c(c1)CC[C@@H]1[C@@H]2CC[C@]2(C)[C@@H](O)CC[C@@H]12 | 4.7% | -4.7% | -10.9% | -5.4% | 4.5% | 90.6% | 27.7% | 57.9% | 97.9% | 73.2% |
| O=C(O)P(=O)(O)O | 26.6% | -36.5% | 18% | 31.1% | -4% | 136% | 88.1% | 114% | 112% | 90.2% |
| COc1ccc(-c2cc(=O)c3c(O)cc(OC)c(OC)c3o2)c(OC)c1 | -17.2% | 4.7% | 2.9% | 4.7% | 5.9% | 127% | 156% | 91% | 101% | 121% |
| O=C(CCCN1CCC(O)(c2ccc(Br)cc2)CC1)c1ccc(F)cc1 | -12% | -1.3% | 32.8% | 11.6% | 9.3% | 78% | 71.9% | 115% | 84.1% | 81% |
| O[C@H]1[C@H]2c3cc4c(cc3CN3CCC(=C[C@@H]1O)[C@H]23)OCO4 | -8.3% | -4.7% | 33.6% | 39.4% | 4.8% | 88% | 81.5% | 94.4% | 74.6% | 87.2% |
| CN1CCc2cccc3c2[C@H]1Cc1ccc(O)c(O)c1-3 | -3.3% | 12.5% | 17.1% | 34.4% | 51.6% | 71.4% | 82% | 65.8% | 19.8% | 2% |
| Cc1c(S(=O)(=O)O)oc2c1C(=O)C(=O)c1c-2ccc2c1CCCC2(C)C | -13.9% | -2.5% | 6.6% | 18.2% | 22.2% | 105% | 94.6% | 122% | 116% | 121% |
| NC(=O)NC1NC(=O)NC1=O (stereo not given) | 12.2% | -5.1% | -19.5% | 4.9% | 15.5% | 115% | 103% | 94.4% | 123% | 104% |
| COc1ccc(C(=O)O)c(O)c1OC | -27% | -24.2% | 6.6% | 5.4% | 14.1% | 137% | 73.3% | 121% | 102% | 91.9% |
| C=C1C(=O)O[C@H]2[C@H]1CC/C(C)=C/CC[C@@]1(C)O[C@@H]21 | -20.5% | 11.2% | -7.3% | 19.6% | 11.9% | 97.6% | 85.2% | 84.1% | 108% | 65.7% |
| CC[C@H]1OC(=O)[C@H](C)[C@@H](O[C@H]2C[C@@](C)(OC)[C@@H](O)[C@H](C)O2)[C@H](C)[C@@H](O[C@@H]2O[C@H](C)C[C@H](N(C)C)[C@H]2O)[C@](C)(O)C[C@@H](C)[C@@H]2N[C@@H](COCCOC)O[C@H]([C@H]2C)[C@]1(C)O | -14.1% | -18.6% | -0.3% | -11.7% | 16.4% | 81.3% | 86.3% | 112% | 130% | 126% |
| CN(C)C(=N)NC(=N)N | -4.1% | -8.2% | -21.3% | -13.3% | 11.3% | 120% | 112% | 83.1% | 97.8% | 101% |
